PubChem BioAssay AID1224830 | NIAID | 2016
The deposit covers about 18,000 reagents; this is a part drawn at random. About 2,900 of all reagents (16%) were called active. 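Calls are made per well; low scores hint the gene aids the LPS response, high scores that it dampens it.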 Unmarked entries are inactive. Repeated entries: four replicate wells of each siRNA pool. No sequences are given here.

Purpose: 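Genes whose knock-down alters the TNF-alpha reporter response to LPS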 (primary screen)
System: human THP-1 monocytic leukaemia cells, TNF dual-luciferase reporter clone, PMA-differentiated to macrophage-like cells
Reagents: siRNA pool against human genes, 50 nM
Timing: LPS for 4 h, given about 3 days after siRNA transfection
Treatment: bacterial LPS (TLR4 ligand), 10 ng/ml
Detection: 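Ratio of firefly to renilla light, scaled to the plate median and expressed as a robust z-score per replicate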
Scale: TNF reporter robust z-score: higher = stronger TNF reporter response to LPS
Rule for the call: 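Each well counts as active if its z-score is over 2.8 or under -1.5; controls are left without a call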

Target gene	TNF reporter robust z-score
GSTT2 (GeneID 2953)	0.64
GSTT2 (GeneID 2953)	0.36
GSTT2 (GeneID 2953)	0.59
GSTT2 (GeneID 2953)	1.12
C2orf15 (GeneID 150590)	-1.25
C2orf15 (GeneID 150590)	0.03
C2orf15 (GeneID 150590)	-0.35
C2orf15 (GeneID 150590)	-0.77
DSEL (GeneID 92126)	0.13
DSEL (GeneID 92126)	0.21
DSEL (GeneID 92126)	0.28
FOXL1 (GeneID 2300)	-0.63
FOXL1 (GeneID 2300)	0.03
FOXL1 (GeneID 2300)	-0.79
FOXL1 (GeneID 2300)	-0.2
PNPLA2 (GeneID 57104)	0.43
PNPLA2 (GeneID 57104)	0.62
PNPLA2 (GeneID 57104)	0.3
PNPLA2 (GeneID 57104)	-1.14
UBR3 (GeneID 130507)	0
UBR3 (GeneID 130507)	-1.52 (active)
UBR3 (GeneID 130507)	-0.05
UBR3 (GeneID 130507)	-0.58
OR10H2 (GeneID 26538)	0.42
OR10H2 (GeneID 26538)	0.4
OR10H2 (GeneID 26538)	-0.99
OR10H2 (GeneID 26538)	-0.49
ZNF367 (GeneID 195828)	-0.02
ZNF367 (GeneID 195828)	-0.04
ZNF367 (GeneID 195828)	0.02
GOT1L1 (GeneID 137362)	0.15
GOT1L1 (GeneID 137362)	3.79 (active)
GOT1L1 (GeneID 137362)	0.84
GOT1L1 (GeneID 137362)	1.77
AMPD2 (GeneID 271)	-0.94
AMPD2 (GeneID 271)	0.35
AMPD2 (GeneID 271)	0.63
AMPD2 (GeneID 271)	1.26
PPP1R36 (GeneID 145376)	-0.44
PPP1R36 (GeneID 145376)	-0.75
PPP1R36 (GeneID 145376)	-1.26
PPP1R36 (GeneID 145376)	-0.38
RP1L1 (GeneID 94137)	-0.9
RP1L1 (GeneID 94137)	0.01
RP1L1 (GeneID 94137)	0.11
RP1L1 (GeneID 94137)	0.05
RSPO1 (GeneID 284654)	-0.29
RSPO1 (GeneID 284654)	0.82
RSPO1 (GeneID 284654)	0.36
RSPO1 (GeneID 284654)	0.97
ARMC5 (GeneID 79798)	1.88
ARMC5 (GeneID 79798)	1.86
ARMC5 (GeneID 79798)	1.34
ARMC5 (GeneID 79798)	1.24
ISY1 (GeneID 57461)	0.65
ISY1 (GeneID 57461)	0.08
ISY1 (GeneID 57461)	-0.89
ISY1 (GeneID 57461)	0.88
C6 (GeneID 729)	-0.09
C6 (GeneID 729)	-0.03
C6 (GeneID 729)	-0.05
C6 (GeneID 729)	0.73
STOML3 (GeneID 161003)	0.02
STOML3 (GeneID 161003)	-0.04
STOML3 (GeneID 161003)	-0.39
STOML3 (GeneID 161003)	-0.79
TRIP11 (GeneID 9321)	0.18
TRIP11 (GeneID 9321)	1.41
TRIP11 (GeneID 9321)	2.06
TRIP11 (GeneID 9321)	1.86
CFC1 (GeneID 55997)	-0.02
CFC1 (GeneID 55997)	0.81
CFC1 (GeneID 55997)	0.41
CFC1 (GeneID 55997)	0.67

Continued; the last 13 above are carried over.
Target gene	TNF reporter robust z-score
C6 (GeneID 729)	0.73
STOML3 (GeneID 161003)	0.02
STOML3 (GeneID 161003)	-0.04
STOML3 (GeneID 161003)	-0.39
STOML3 (GeneID 161003)	-0.79
TRIP11 (GeneID 9321)	0.18
TRIP11 (GeneID 9321)	1.41
TRIP11 (GeneID 9321)	2.06
TRIP11 (GeneID 9321)	1.86
CFC1 (GeneID 55997)	-0.02
CFC1 (GeneID 55997)	0.81
CFC1 (GeneID 55997)	0.41
CFC1 (GeneID 55997)	0.67
RDH5 (GeneID 5959)	0.22
RDH5 (GeneID 5959)	0.76
RDH5 (GeneID 5959)	-0.09
RDH5 (GeneID 5959)	0
TMEM74 (GeneID 157753)	-1.88 (active)
TMEM74 (GeneID 157753)	-1.21
TMEM74 (GeneID 157753)	-1.35
TMEM74 (GeneID 157753)	-1.26
SNAPC5 (GeneID 10302)	0.18
SNAPC5 (GeneID 10302)	-0.06
SNAPC5 (GeneID 10302)	0
MARVELD2 (GeneID 153562)	0.16
MARVELD2 (GeneID 153562)	1.19
MARVELD2 (GeneID 153562)	-0.26
MARVELD2 (GeneID 153562)	0.77
H2BC15 (GeneID 8341)	-0.54
H2BC15 (GeneID 8341)	0.21
H2BC15 (GeneID 8341)	0.22
H2BC15 (GeneID 8341)	0.14
SPACA1 (GeneID 81833)	-1
SPACA1 (GeneID 81833)	-0.43
SPACA1 (GeneID 81833)	-0.18
SPACA1 (GeneID 81833)	-0.56
ARHGAP9 (GeneID 64333)	-0.69
ARHGAP9 (GeneID 64333)	-0.65
ARHGAP9 (GeneID 64333)	-0.72
ARHGAP9 (GeneID 64333)	1.12
C16orf82 (GeneID 162083)	0.14
C16orf82 (GeneID 162083)	0.2
C16orf82 (GeneID 162083)	-1.09
C16orf82 (GeneID 162083)	2.02
KLHL25 (GeneID 64410)	0.57
KLHL25 (GeneID 64410)	-0.33
KLHL25 (GeneID 64410)	0.13
KLHL25 (GeneID 64410)	0.49
VPS4B (GeneID 9525)	-0.5
VPS4B (GeneID 9525)	0.34
VPS4B (GeneID 9525)	-0.15
VPS4B (GeneID 9525)	-0.18
R3HDM1 (GeneID 23518)	-0.76
R3HDM1 (GeneID 23518)	-1.72 (active)
R3HDM1 (GeneID 23518)	-1.92 (active)
R3HDM1 (GeneID 23518)	-1.84 (active)
DXO (GeneID 1797)	-1.17
DXO (GeneID 1797)	-1.01
DXO (GeneID 1797)	-0.87
DXO (GeneID 1797)	-0.89
ARID3C (GeneID 138715)	0.99
ARID3C (GeneID 138715)	2.28
ARID3C (GeneID 138715)	1.23
ARID3C (GeneID 138715)	-0.43
TGDS (GeneID 23483)	-0.59
TGDS (GeneID 23483)	-0.74
TGDS (GeneID 23483)	-0.7
TGDS (GeneID 23483)	-0.61
PLEKHA5 (GeneID 54477)	-0.05
PLEKHA5 (GeneID 54477)	-0.84
PLEKHA5 (GeneID 54477)	-0.38
PLEKHA5 (GeneID 54477)	-0.16
TIMM29 (GeneID 90580)	-1.22
TIMM29 (GeneID 90580)	-0.16
TIMM29 (GeneID 90580)	-0.79
TIMM29 (GeneID 90580)	-0.86
ETF1 (GeneID 2107)	-0.05
ETF1 (GeneID 2107)	0.16
ETF1 (GeneID 2107)	-0.07
ETF1 (GeneID 2107)	-0.37
